Data reported in PubChem BioAssay AID2685 (National Center for Advancing Translational Sciences (NCATS), 2010).
This is one part of the list. These are further read-outs of the screen, such as a control signal, another cell line or another target. No call is given for them. Most of these compounds were active or inconclusive in the main read-out, so they are no random draw. Words in brackets tell the shape of the fitted curve; partial curves, single points and poor fits give uncertain potencies.

Assay: qHTS Assay for Lipid Storage Modulators in Drosophila S3 Cells;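 as to cell number change: cells counted by Cell Tracker Red CMTPX staining in the red channel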
Conditions: BODIPY lipid droplet fluorescence, 18-24 h; for cell number change: measured here: cell count max response, cells fed with added oleic acid
Summary of the method: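 Drosophila S3 cells got compounds at several concentrations plus oleic acid (400 uM solution). Laser-scanning cytometry with 488 nm excitation read lipid droplets at 500-530 nm and cells at 575-640 nm. Percent activity was relative to 20 uM Triacsin C.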

[1] = measured here: lipid fluorescence (Fed channel) AC50, cells fed with added oleic acid
[2] = measured here: cell number channel AC50, cells fed with added oleic acid

Row | Compound | cell number change [%] | AC50 [1] | AC50 [2]
1 | O=C(CN1CCN(c2cccc(Cl)c2)CC1)N1CCCC1 | 4.06 | 0.00731 µM [falling, full curve, poor fit] | 
2 | CCC(CC)C1C(C#N)=C(N)Oc2n[nH]c(C)c21 (stereo unspecified) |  | 0.206 µM [falling, full curve, poor fit] | 
3 | CC(C)n1ncc2c(C(=O)Nc3cccc(S(=O)(=O)N(C)C)c3)cc(C3CC3)nc21 | -7.52 | 2.06 µM [falling, partial curve] | 
4 | COc1cc(NC(=O)c2ccc3c(c2)OCCO3)ccc1NC(=O)c1ccccc1Cl | 14.1 | 16.4 µM [rising, single point] | 
5 | COc1cc(/C=C/C(=O)OCC(=O)N2CC(=O)Nc3ccccc32)ccc1O | 21.4 | 4.61 µM [rising, full curve] | 
6 | Cc1ccc(OCCC(=O)OCC(=O)NC2CCS(=O)(=O)C2)cc1 (stereo unspecified) | -20.5 |  | 
7 | COc1ccc(N2CC(NS(=O)(=O)c3cccnc3)CC2=O)cc1 (stereo unspecified) |  | 4.61 µM [rising, full curve] | 
8 | O=C(Nc1ccc2c(c1)OCO2)C1CC(c2ccc(Cl)cc2)=NO1 (stereo unspecified) | -18.8 |  | 
9 | CC(=O)Nc1ccc(NC(=O)CSc2ncnc3sc(C)c(C)c23)cc1 |  | 22.4 µM [falling, single point] | 
10 | O=C(NNC(=O)c1sccc1-n1cccc1)Nc1ccc(F)cc1 | -11.8 |  | 
11 | CC1Cc2ccccc2N1S(=O)(=O)c1ccc2c(c1)n(C)c(=O)c(=O)n2C (stereo unspecified) | 103 | 5.8 µM [rising, partial curve] | 9.2 µM [rising, partial curve]
12 | O=C(CCCc1ccccc1)NC12CC3CC(CC(C3)C1)C2 |  |  | 0.651 µM [rising, full curve, poor fit]
13 | Cc1ccc(C(CC(=O)N2CCCC2)c2ccccc2)c(O)c1 (stereo unspecified) | -1.42 |  | 
14 | COc1cc2c(cc1OC)CN(c1ccc(C(N)=O)cc1[N+](=O)[O-])CC2 | -1.9 | 29.1 µM [falling, partial curve, poor fit] | 
15 | COc1cc(CNCc2ccc3c(c2)OCO3)c([N+](=O)[O-])cc1OC | -18 | 0.651 µM [falling, single point] | 
16 | Cc1cccc(OCC(=O)N2CCc3ccccc3C2)c1 | -4.56 |  | 
17 | CC(C)c1nc2c(s1)CCc1onc(-c3cccc([N+](=O)[O-])c3)c1-2 | 15.2 |  | 
18 | O=C(CN1CCNCC1)NCCSc1ccc(Cl)cc1 | -17.6 |  | 0.00461 µM [rising, full curve, poor fit]
19 | Cn1c(SCC(=O)N2CCCC2)nc2ccccc2c1=O | -0.0707 |  | 
20 | CC(=O)c1ccc(Nc2cc(C)nc3nc(C)nn23)cc1 | 16.1 | 8.2 µM [rising, partial curve, poor fit] | 
21 | Cc1ccc2nc(Nc3ccc(C)c(Cl)c3)c3nncn3c2c1 | 1.39 | 4.11 µM [rising, partial curve] | 

Row | Compound | cell number change [%] | AC50 [1] | AC50 [2]
22 | O=C(CNc1cc(S(=O)(=O)N2CCCC2)ccc1OCC(F)(F)F)Nc1cccc(C(F)(F)F)c1 | -8.53 |  | 
23 | Cc1c(N2C(=O)/C(=C\c3cccc4ccccc34)SC2=S)c(=O)n(-c2ccccc2)n1C | 2.67 | 6.51 µM [falling, single point] | 
24 | O=C(COC(=O)C1CCC1)NCc1ccccc1Cl | 2.54 | 6.51 µM [falling, single point] | 
25 | CCOc1cc(NC(=O)CCl)c(OCC)cc1NC(=O)CCl | -20.8 | 29.1 µM [falling, single point] | 
26 | Cc1csc(C(C)NC(=O)c2ccc(OC3CCN(CCc4ccccc4)CC3)cc2)n1 (stereo unspecified) | 27.1 |  | 
27 | COCCCNc1nc2ccccc2nc1NS(=O)(=O)c1ccc(C)cc1 | 34.2 |  | 0.00461 µM [rising, full curve, poor fit]
28 | CCOC(=O)C(=CNc1nc(-c2ccc3ccccc3c2)cs1)C(=O)OCC | 23.9 | 4.61 µM [rising, partial curve, poor fit] | 
29 | O=C(c1ccc(-c2ccccc2Cl)o1)N1CCN(S(=O)(=O)c2cccs2)CC1 |  |  | 0.00411 µM [falling, full curve, poor fit]
30 | Cc1cccc(CCNC(=O)c2cc(S(=O)(=O)N3CCCCC3)c[nH]2)c1 | -12.9 |  | 
31 | CCOc1ccc(C(=O)Nc2c3c(nn2-c2ccc(F)cc2)CS(=O)C3)cc1 (stereo unspecified) |  |  | 1.3 µM [rising, partial curve]
32 | Cc1ccc2[nH]c(=O)c(C3C(C#N)=C(N)Oc4c3ccc3cccnc43)cc2c1 (stereo unspecified) | -43.6 |  | 29.1 µM [falling, single point]
33 | Oc1ccc(/C=N/Nc2nc(-c3ccc(Cl)cc3)cc(C(F)(F)F)n2)cc1 | -50.7 |  | 10.3 µM [falling, partial curve]
34 | CC(C)OP(=O)(OC(C)C)C(Nc1ccc([N+](=O)[O-])cc1)c1cccc([N+](=O)[O-])c1 (stereo unspecified) | 8.77 |  | 
35 | COc1ccc([C@H]2CC(=O)C=C(c3ccc4c(c3)OCCO4)C2)cc1 | 8.42 | 0.00517 µM [rising, full curve, poor fit] | 
36 | O=C(Cc1ccc([N+](=O)[O-])cc1)N1CCc2ccccc2C1 | 10.9 | 29.1 µM [rising, single point] | 
37 | COCC(=O)Nc1nnc(-c2cccs2)s1 | -14.6 |  | 0.184 µM [falling, full curve, poor fit]
38 | Cc1cccc2sc(N(CCCN(C)C)C(=O)CCc3ccccc3)nc12 | -39.9 | 16.4 µM [falling, single point] | 25.9 µM [falling, single point]
39 | O=[N+]([O-])c1cc(/C=N\Nc2ccccn2)ccc1Cl | -3.57 | 6.51 µM [rising, single point] | 
40 | COc1ccc(CCNC(=O)CCNS(=O)(=O)c2cccc3nonc23)cc1OC | 67.3 | 4.61 µM [rising, single point] | 20.6 µM [rising, partial curve]
41 | COc1ccccc1CNC(=O)COC(=O)Cn1cnc2ccccc21 | -39.1 |  | 8.2 µM [falling, partial curve]
42 | CC1CCCCC1NC(=O)CN(C)S(=O)(=O)c1cccc2cccnc12 (stereo unspecified) | 37.8 | 23.1 µM [rising, single point] | 18.4 µM [rising, single point]

Rewritten field by field: 2 of the compounds above.
Oc1ccc(/C=N/Nc2nc(-c3ccc(Cl)cc3)cc(C(F)(F)F)n2)cc1
  cell number change [%]: -50.7; AC50 [2]: 10.3 µM [falling, partial curve]
CC(C)OP(=O)(OC(C)C)C(Nc1ccc([N+](=O)[O-])cc1)c1cccc([N+](=O)[O-])c1 (stereo unspecified)
  cell number change [%]: 8.77
